Measured values from PubChem BioAssay AID1347426 (Functional Genomics Laboratory (NCATS/FGL), 2020).
Screen size: about 31,000 sequences; about 1,400 (4.5%) were called active.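 The calls were made as follows: active = median seed-adjusted z-score above 1 or below -1; inactive = the rest.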 The list shows a part of the results.

experiment: Novel Modifiers of Survival Motor Neuron (SMN) Protein: Gene Identification via Genome-wide siRNA Screen; conditions: HEK293T SMN2-luciferase reporter, siRNA knockdown, 72 h; actives lie on both sides;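 also: luminescence tracks full-length SMN protein made from the SMN2 reporter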
Summary of the method: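 HEK293T cells stably expressing an SMN2 splicing/cDNA-luciferase reporter were reverse-transfected with a druggable-genome siRNA library and read by luminescence at 72 hours; hits defined by MAD score above 1.0 or below -1.0.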

Sequence | median seed-adjusted z-score
GAGACUCCAUUGCCGAAAATT against ZNF223 | inactive: 0.367
CCACAAUUCCACACCCAAATT against CACNG3 | inactive: -0.189
CAUCCGGACUACUUCCAAATT against ABCC5 | inactive: 0.00533
GAAGAUACUCAACGAAUUATT against DIAPH2 | inactive: -0.0149
GUCCCUCAGCUAUCACAGATT against ZFP57 | inactive: -0.267
CCUUUCUGGUGAUCACGAATT against LARP7 | inactive: -0.483
GAAAAGGCGAAGACAAUCATT against CDC14C | inactive: 0.437
CCUGUACGAUGAGAUAGAATT against CYFIP2 | inactive: -0.322
AGAUCGACUUGAUCGUGCATT against CDK10 | inactive: 0.327
ACAUAGGCAUGGUAUCACATT against ASAH2 | inactive: 0.615
GAAUCAGCUCUUCACUAUATT against GLCE | inactive: 0.752
GCUAAAGAGAGAUAUGGAATT against DARS | inactive: 0
GAGUUCAGCCUGCACCACATT against PRRX2 | inactive: -0.141
AGUCUUCGGUGGCCAGGUATT against FUT6 | inactive: 0.282
GGUGGACUCCGAUUAUCAATT against STXBP1 | inactive: -0.0496
GACCGACUCAGAUAUCAUUTT against SNRPA | active: -2.09
GAGUCUAUCAUGAAUGUCATT against HSD3B1 | inactive: -0.145
GUCUAUGACAGUUACCUUATT against TMPRSS13 | inactive: 0.0584
GCCCAACACUCGCCUUGAATT against DPP3 | inactive: -0.261
CCAUUGAAUGGAAUCUGAATT against LCORL | inactive: -0.0458
CAGUAAAUCUGAAAAGUAATT against RBMXL2 | inactive: -0.387
UCCUCGUAAGUGACCGUUATT against CHST14 | inactive: 0.228
UAACUUCUAUGACAACAAATT against CTSA | inactive: 0.0897

Sequence | median seed-adjusted z-score
GUAUGUUCAGGUUCAGUCATT against SMOC1 | inactive: 0.0453
GAGUAUAUCAGAAUCGGGATT against THRAP3 | inactive: -0.852
GCCGAGUUGUGAUUAUCGATT against ACTR10 | inactive: 0.362
AGAAAUCUCCACUAUUUUATT against AKR1C3 | inactive: -0.00538
GGUUGUAGAUGGUACUCCATT against ADAMTS1 | inactive: 0.173
CGCCGGAAGUUGUAUGGUUTT against FLT1 | inactive: 0.407
AGCCCGAUCUGAAGAAGGATT against SOX9 | inactive: 0.775
AGAGCAAUGAACAAUGGAATT against EGFL8 | inactive: 0.365
CAACCAGGCUCCACAUAAATT against APOBEC3G | inactive: 0.00539
GGUGGUGAAUUUGCGAGAATT against KIF27 | inactive: 0.412
CACUAUCCUGAGUAAUUAUTT against GABRE | inactive: 0.211
GCCUAGAGCUAAGUACCAATT against CHUK | inactive: -0.613
GACCCAACCUGGUUCUGAATT against CRTAC1 | inactive: 0.113
GAAGUUGACAUACCACCUATT against BMPR1B | inactive: 0.5
AAAUGUCCAAGAAUGAAUATT against AFAR3 | inactive: 0.0433
CUAUCUCUAUGAUUGAUUATT against GSTO1 | inactive: 0.188
CGAUGAUUACGACGAGGACTT against KCNG4 | inactive: 0.666
CCCUUUUCCUGCACAACAATT against PLOD3 | inactive: -0.258
GCUCGAUUAACAAAAUAUATT against SLC30A5 | inactive: 0.401
GGUGGAAUGGUAUACUAAATT against NT5C3 | inactive: -0.456
GAAUACCAUUUAACAUGGATT against ZNF33B | inactive: -0.279
GAGUGGACAUUGGACUCAATT against TBC1D9B | inactive: -0.906
GAACUGCAUCGGGAAACAATT against CYP4A22 | inactive: -0.479

Sequence | median seed-adjusted z-score
GCAUACAAGAAGUCACUAUTT against KRT1 | inactive: -0.362
GGUCCUUACGAAAAUCGCATT against ATP6V1B2 | inactive: 0.24
GGUGUAACAGGAUUGAGAATT against USP44 | inactive: 0.374
GCCCAAACUGAGUACAACUTT against PLA2G10 | active: 1.07
GGAUUUUACAGUUUUUGGATT against PCCB | inactive: 0.137
GAAAGAAGAAUAUACUGAUTT against RBBP6 | inactive: -0.212
CUAACACCUCGGAACCCAATT against TACR1 | inactive: -0.391
CAUUGAUGCUUGUAUUGAATT against CPEB2 | inactive: -0.00928
AUAGUGAAAUAGAACAGUATT against BRF2 | inactive: -0.00969
CGAGAUAACUACUUUCGGATT against RALB | inactive: -0.534
GGAUCAUCCAAGAUGGGAATT against NELL1 | inactive: -0.466
CGCUGAGCACGAUCCUGAATT against CENPB | inactive: 0.292
CAAUAUCACCUCAUUAAUATT against KCTD5 | inactive: -0.748
CCCUUACAGUUGUCGGAUUTT against ZNF438 | inactive: 0.165
GAACUGAUAGGAAAACAAATT against AK3L1 | inactive: 0.0337
GGUAUUAUCCUGCUUGGUATT against XPO7 | inactive: 0.546
GGCCUUUAGUUAUAAAGGATT against TIMM8A | inactive: 0.173
ACCUCGAACUCUCAAAAUUTT against NDUFV3 | inactive: -0.086
UCCCAGCGCUGAAACUUGATT against OXT | inactive: 0.553
GGAAAUAGAACAUAACCAATT against HPDL | inactive: 0.483
CCGUCUUCAUGUUCGAGUATT against GRIN2C | inactive: -0.3
CCAUGUAUCUGAGUGAUCATT against ERC2 | inactive: 0.172

Some values from the results shown:
CAUUGAUGCUUGUAUUGAATT against CPEB2 | median seed-adjusted z-score: inactive: -0.00928
GGUCCUUACGAAAAUCGCATT against ATP6V1B2 | median seed-adjusted z-score: inactive: 0.24
